# Results reported in PMC4583408.
# Chains of the proteins cited; added tags and fusions are not shown. Lines headed by an entry give the natural chain unless they say otherwise; changes in a name come on top.
# UniProt Q9VEZ3: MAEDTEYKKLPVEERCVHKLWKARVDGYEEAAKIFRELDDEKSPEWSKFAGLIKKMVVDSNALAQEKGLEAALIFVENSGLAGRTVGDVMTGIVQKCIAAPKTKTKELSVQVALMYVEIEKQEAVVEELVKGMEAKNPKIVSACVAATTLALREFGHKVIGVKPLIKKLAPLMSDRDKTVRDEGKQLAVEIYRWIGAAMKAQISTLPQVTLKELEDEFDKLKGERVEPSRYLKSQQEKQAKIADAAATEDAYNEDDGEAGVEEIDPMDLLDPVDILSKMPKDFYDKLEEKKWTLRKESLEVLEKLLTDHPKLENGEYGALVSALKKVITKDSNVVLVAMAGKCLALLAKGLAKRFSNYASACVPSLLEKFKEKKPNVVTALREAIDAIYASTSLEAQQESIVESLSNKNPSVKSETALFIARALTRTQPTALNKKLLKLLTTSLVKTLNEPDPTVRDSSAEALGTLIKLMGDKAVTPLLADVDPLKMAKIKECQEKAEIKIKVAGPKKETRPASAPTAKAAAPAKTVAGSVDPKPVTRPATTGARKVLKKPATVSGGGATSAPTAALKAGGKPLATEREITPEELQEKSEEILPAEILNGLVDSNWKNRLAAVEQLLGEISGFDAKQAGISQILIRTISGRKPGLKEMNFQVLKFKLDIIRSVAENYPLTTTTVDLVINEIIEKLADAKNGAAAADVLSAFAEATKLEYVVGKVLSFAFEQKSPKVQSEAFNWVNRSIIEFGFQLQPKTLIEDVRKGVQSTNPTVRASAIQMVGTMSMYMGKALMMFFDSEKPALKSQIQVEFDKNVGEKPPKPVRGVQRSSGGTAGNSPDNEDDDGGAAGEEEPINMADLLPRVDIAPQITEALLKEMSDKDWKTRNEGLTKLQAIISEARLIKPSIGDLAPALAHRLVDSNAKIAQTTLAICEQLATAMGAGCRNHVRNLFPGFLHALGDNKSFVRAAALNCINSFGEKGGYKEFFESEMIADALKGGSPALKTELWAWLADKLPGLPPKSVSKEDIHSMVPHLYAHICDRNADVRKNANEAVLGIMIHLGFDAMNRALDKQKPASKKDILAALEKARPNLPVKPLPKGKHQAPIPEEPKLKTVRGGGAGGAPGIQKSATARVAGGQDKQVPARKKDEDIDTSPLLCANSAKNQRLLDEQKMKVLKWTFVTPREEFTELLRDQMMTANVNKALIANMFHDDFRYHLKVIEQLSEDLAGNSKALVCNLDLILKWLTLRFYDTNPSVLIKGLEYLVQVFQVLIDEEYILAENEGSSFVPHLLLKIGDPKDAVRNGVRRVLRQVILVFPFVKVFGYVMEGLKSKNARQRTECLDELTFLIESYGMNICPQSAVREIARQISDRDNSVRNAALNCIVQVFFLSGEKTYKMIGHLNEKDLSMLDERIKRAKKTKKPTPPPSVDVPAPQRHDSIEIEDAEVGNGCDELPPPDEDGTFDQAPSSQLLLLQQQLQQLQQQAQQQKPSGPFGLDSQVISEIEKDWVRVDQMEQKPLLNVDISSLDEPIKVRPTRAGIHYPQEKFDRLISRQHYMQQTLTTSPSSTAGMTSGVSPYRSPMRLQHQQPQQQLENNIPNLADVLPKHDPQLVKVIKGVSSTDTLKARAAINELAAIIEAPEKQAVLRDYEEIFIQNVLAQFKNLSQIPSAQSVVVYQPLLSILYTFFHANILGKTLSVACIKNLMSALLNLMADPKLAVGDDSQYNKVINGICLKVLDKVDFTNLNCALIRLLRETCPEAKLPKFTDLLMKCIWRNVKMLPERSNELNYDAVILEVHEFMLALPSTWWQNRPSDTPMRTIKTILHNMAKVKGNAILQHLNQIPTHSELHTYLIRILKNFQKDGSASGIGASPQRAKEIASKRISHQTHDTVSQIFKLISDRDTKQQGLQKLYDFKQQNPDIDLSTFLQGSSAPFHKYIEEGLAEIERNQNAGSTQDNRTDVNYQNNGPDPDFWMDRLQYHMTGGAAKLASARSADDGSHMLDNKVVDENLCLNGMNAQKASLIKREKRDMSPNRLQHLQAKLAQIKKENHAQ
# These are yes or no findings as the source states them, for the method shown. Binding seen in cells or lysates may run through a third protein. For some assays here: Binding can be weak; no strength is given. For some assays here: Tags and fused reporters may be left off the sequences shown.
# Key:
# [1] = biological target: T1, Orbit/MAST, endogenous (Drosophila (endogenous in S2 cells)) (UniProt Q9NBD7); test: co-IP; lysate of S2 cells, control or GSK3β-depleted; immunoprecipitation of endogenous Orbit and Sentin, pre-immune serum of the Orbit rabbits as control
# T1 sequence: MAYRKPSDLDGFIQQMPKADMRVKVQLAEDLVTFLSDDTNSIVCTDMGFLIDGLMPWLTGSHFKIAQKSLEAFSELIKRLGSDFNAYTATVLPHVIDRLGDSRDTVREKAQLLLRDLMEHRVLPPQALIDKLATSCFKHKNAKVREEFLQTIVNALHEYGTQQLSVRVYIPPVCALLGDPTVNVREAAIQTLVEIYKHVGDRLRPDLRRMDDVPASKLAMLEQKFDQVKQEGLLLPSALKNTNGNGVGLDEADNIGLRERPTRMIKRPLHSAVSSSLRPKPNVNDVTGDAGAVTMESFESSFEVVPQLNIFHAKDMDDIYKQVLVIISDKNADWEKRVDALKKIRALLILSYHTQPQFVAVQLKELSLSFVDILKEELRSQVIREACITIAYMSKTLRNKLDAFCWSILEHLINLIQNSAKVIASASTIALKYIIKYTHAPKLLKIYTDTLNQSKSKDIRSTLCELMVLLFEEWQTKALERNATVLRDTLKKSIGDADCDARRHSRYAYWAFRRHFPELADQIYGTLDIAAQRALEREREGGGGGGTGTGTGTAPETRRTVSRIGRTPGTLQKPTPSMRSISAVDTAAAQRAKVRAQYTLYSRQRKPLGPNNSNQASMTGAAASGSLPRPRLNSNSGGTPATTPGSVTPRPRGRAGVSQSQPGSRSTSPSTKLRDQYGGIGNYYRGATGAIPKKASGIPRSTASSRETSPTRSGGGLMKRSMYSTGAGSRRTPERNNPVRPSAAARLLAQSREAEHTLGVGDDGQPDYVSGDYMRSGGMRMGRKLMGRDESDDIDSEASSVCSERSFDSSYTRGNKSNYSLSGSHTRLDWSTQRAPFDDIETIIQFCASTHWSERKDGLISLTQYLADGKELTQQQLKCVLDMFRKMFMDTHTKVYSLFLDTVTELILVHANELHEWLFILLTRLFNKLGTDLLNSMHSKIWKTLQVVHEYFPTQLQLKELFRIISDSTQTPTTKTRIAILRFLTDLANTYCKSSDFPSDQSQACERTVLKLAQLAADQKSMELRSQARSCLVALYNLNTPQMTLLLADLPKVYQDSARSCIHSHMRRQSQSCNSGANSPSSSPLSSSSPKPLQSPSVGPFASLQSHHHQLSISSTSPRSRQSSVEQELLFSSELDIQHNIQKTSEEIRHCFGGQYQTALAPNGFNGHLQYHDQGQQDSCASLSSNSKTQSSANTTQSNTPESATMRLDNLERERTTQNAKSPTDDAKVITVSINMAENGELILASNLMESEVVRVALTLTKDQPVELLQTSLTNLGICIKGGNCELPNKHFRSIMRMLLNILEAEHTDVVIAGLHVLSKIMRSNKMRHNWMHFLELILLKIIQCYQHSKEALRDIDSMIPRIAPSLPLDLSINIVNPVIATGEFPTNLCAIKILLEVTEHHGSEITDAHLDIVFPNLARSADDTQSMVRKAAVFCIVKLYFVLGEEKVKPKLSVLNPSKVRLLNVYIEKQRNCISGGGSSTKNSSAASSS
# [2] = biological target: T2, Orbit 1071-1492-GFP (Drosophila) (UniProt Q9NBD7); test: co-IP; lysate of S2 cells co-expressing mCherry-tagged Msps 1406–1596 (wild type or mutant) and GFP-tagged pieces of the Orbit TOG3-CT fragment
# T2 sequence: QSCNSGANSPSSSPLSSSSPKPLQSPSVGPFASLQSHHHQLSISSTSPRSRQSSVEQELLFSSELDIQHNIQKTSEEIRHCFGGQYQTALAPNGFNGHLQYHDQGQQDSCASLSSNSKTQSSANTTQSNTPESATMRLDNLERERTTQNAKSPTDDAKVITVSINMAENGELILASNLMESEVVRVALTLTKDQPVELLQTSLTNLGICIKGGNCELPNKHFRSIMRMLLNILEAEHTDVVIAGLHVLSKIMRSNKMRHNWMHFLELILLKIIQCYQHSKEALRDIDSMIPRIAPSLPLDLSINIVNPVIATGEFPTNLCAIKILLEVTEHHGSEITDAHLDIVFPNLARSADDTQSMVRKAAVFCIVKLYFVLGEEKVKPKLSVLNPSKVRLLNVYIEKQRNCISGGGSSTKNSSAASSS
binding [1],binding [2],Substance
binds,,"Sentin, endogenous (Drosophila (endogenous in S2 cells))"
,no binding,mCherry-tagged Msps 1406–1596 3K3A (from UniProt Q9VEZ3) (domain or fragment)
